Assay results from PMC10329651, “ATPase activity of DFCP1 controls selective autophagy” (Nature Communications, 2023).
Residue numbers refer to the chain shown, from its start. Names and notes keep the numbering of the source. Results are given in words; binding and its absence hold for the method and conditions named. Where a sequence is shown, tags or fusion partners need not be part of it. Values belong to the binder of their own block, whether it stands above or below them.

Experiments:
[1] = target: His6-MBP-DFCP1 WT (aa 1-410) (UniProt Q9HBF4); test: condition: only loaded with 400 µM ADP instead of ATPγS; SEC; protein loaded with 400 µM ADP for 20 min at RT in exchange buffer (50 mM Tris, 150 mM NaCl, 50 mM MgCl2, 10% glycerol, 1 mM TCEP); Superdex 200 Increase 10/300 GL, isocratic elution at 4 °C, 0.25 ml/min; molecular weights relative to a Bio-Rad gel filtration standard; both purified
[2] = target: His6-MBP-DFCP1 K193A (aa 1-410) (UniProt Q9HBF4); test: SEC; protein loaded with 400 µM ATPγS for 20 min at RT in exchange buffer (50 mM Tris, 150 mM NaCl, 50 mM MgCl2, 10% glycerol, 1 mM TCEP); Superdex 200 Increase 10/300 GL, isocratic elution at 4 °C, 0.25 ml/min; molecular weights relative to a Bio-Rad gel filtration standard; both purified
[3] = target: His6-MBP-DFCP1 K193A (aa 1-410) (UniProt Q9HBF4); test: SEC; protein loaded with 400 µM ADP for 20 min at RT in exchange buffer (50 mM Tris, 150 mM NaCl, 50 mM MgCl2, 10% glycerol, 1 mM TCEP); Superdex 200 Increase 10/300 GL, isocratic elution at 4 °C, 0.25 ml/min; molecular weights relative to a Bio-Rad gel filtration standard; both purified
[4] = target: His6-MBP-DFCP1 T189A (aa 1-410) (UniProt Q9HBF4); test: SEC; protein loaded with 400 µM ATPγS for 20 min at RT in exchange buffer (50 mM Tris, 150 mM NaCl, 50 mM MgCl2, 10% glycerol, 1 mM TCEP); Superdex 200 Increase 10/300 GL, isocratic elution at 4 °C, 0.25 ml/min; molecular weights relative to a Bio-Rad gel filtration standard; both purified
[5] = target: His6-MBP-DFCP1 T189A (aa 1-410) (UniProt Q9HBF4); test: SEC; protein loaded with 400 µM ADP for 20 min at RT in exchange buffer (50 mM Tris, 150 mM NaCl, 50 mM MgCl2, 10% glycerol, 1 mM TCEP); Superdex 200 Increase 10/300 GL, isocratic elution at 4 °C, 0.25 ml/min; molecular weights relative to a Bio-Rad gel filtration standard; both purified

binding [1]: no binding
B1: His6-MBP-DFCP1 WT (aa 1-410) (domain or fragment, UniProt Q9HBF4 1-410, looked up)
chain: MSAQTSPAEKGLNPGLMCQESYACSGTDEAIFECDECCSLQCLRCEEELHRQERLRNHERIRLKPGHVPYCDLCKGLSGHLPGVRQRAIVRCQTCKINLCLECQKRTHSGGNKRRHPVTVYNVSNLQESLEAEEMDEETKRKKMTEKVVSFLLVDENEEIQVTNEEDFIRKLDCKPDQHLKVVSIFGNTGDGKSHTLNHTFFYGREVFKTSPTQESCTVGVWAAYDPVHKVAVIDTEGLLGATVNLSQRTRLLLKVLAISDLVIYRTHADRLHNDLFKFLGDASEAYLKHFTKELKATTARCGLDVPLSTLGPAVIIFHETVHTQLLGSDHPSEVPEKLIQDRFRKLGRFPEAFSSIHYKGTRTYNPPTDFSGLRRALEQLLENNTTRSPRHPGVIFKALKALSDRFSGE
notes: Loaded with ADP or ATPγS before size exclusion chromatography; dimer with ATPγS, monomer with ADP; The vector has a TEV site, but no cleavage is described; also called DFCP1 N-terminus; DFCP1 ATPase domain; not shown: His6, N-terminal, kept; MBP, N-terminal, kept

binding [2]: no binding
binding [3]: no binding
B2: His6-MBP-DFCP1 K193A (aa 1-410) (domain or fragment, UniProt Q9HBF4 1-410)
chain: B1 chain with K193A

binding [4]: no binding
binding [5]: no binding
B3: His6-MBP-DFCP1 T189A (aa 1-410) (domain or fragment, UniProt Q9HBF4 1-410)
chain: B1 chain with T189A
